Test [1] deals with Macaca TIM-3 (Macaca). Put plainly: ELISA. On the technique in general: In an ELISA, binding on a coated surface is turned into a signal by an enzyme label.
For test [2], the target named is Macaca TIM-3 (Macaca). Put plainly: ELISA on Macaca TIM-3, OD450 against Log[nM] of antibody.

These are yes or no findings as the source states them, for the method shown.

B1: humanized anti-TIM-3 antibody ab6 (antibody, IgG4, V domains shown)
VH: EVQLVESGGGLVKPGGSLRLSCAASGFTFSDYYMAWVRQAPGKGLEWVANINYDGSNTYYLDSLKSRFTISRDNAKNSLYLQMNSLRAEDTAVYYCARGLYYYGGNYFAYWGQGTLVTVSS
VL: DIQMTQSPSSLSASVGDRVTITCHASQGISSNIGWLQQKPGKAFKGLIYQGSNLEDGVPSRFSGSGSGADYTLTISSLQPEDFATYYCVQFAQFPPTFGQGTKLEIK
Turning to B1, the values for the binding result with Macaca TIM-3 (Macaca) [1] and with Macaca TIM-3 (Macaca) [2] were “no binding” and “no binding (tested: Log[nM] about 1.8 (about 60 nM))”, respectively.

The values above are taken from patent US20210269521A1.
